PubChem BioAssay AID743454 – Peter MacCallum Cancer Centre – 2014
Assay: 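Knock-downs lowering viability or raising caspase 3/7 activity in vorinostat-treated resistant cells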 (primary screen). System: human HCT116-VR colon cancer cells, selected for vorinostat resistance. Reagent: siRNA pool against human genes, 40 nM siRNA pool. Duration: vorinostat for 24 h, read-out about 72 h after transfection. Conditions: vorinostat at 2.5 µM final. Measurement: 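Two measures, CellTiter-Fluor viability and luminescent caspase 3/7 activity, each as fold change against same-plate mock wells, mean of duplicates, then screen-wide robust z-score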. Reading the numbers: viability robust z-score: higher = more viable cells than screen typical; caspase robust z-score: higher = more caspase 3/7 activity than screen typical. Active means: 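a knock-down is a hit when classed RV1 or RV2 for lowered viability, or CA1 or CA2 for caspase activation; those lethal without drug were dropped; hits were retested singly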.
Shown is one part, drawn at random, of about 18,000 reagents tested. Over the whole deposit, 450 (2.5%) are marked active. 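Single biological run; no consistent viability z cut-off exists, so the class columns, not z-scores, define the calls.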

| Target gene | viability hit class | caspase hit class | viability robust z-score | caspase robust z-score | call |
| --- | --- | --- | --- | --- | --- |
| NNMT | no change | no change | -2.72 | 3.62 | inactive |
| PMFBP1 | no change | no change | 0.83 | -0.11 | inactive |
| FAM216A | no change | no change | 1.62 | 0.01 | inactive |
| AIFM1 | no change | no change | -1.6 | -0.6 | inactive |
| SNTB2 | no change | no change | -0.14 | 0.37 | inactive |
| KLF6 | no change | no change | -0.34 | 0.18 | inactive |
| PRKCSH | no change | no change | -0.06 | -1.07 | inactive |
| MYH3 | no change | no change | 0.46 | -0.45 | inactive |
| EEA1 | no change | no change | 1.34 | 0.61 | inactive |
| KRTAP13-3 | no change | no change | 0.4 | -0.54 | inactive |
| LRRFIP1 | no change | no change | 0.46 | -0.26 | inactive |
| OR2J2 | no change | no change | -0.23 | 1.02 | inactive |
| KIF24 | no change | no change | 0.12 | -0.94 | inactive |
| SSTR3 | no change | no change | -0.5 | 1.71 | inactive |
| TSPAN16 | no change | no change | -0.24 | -0.24 | inactive |
| PCGF2 | no change | no change | 0.8 | -0.99 | inactive |
| RNF4 | no change | no change | -0.2 | 1.86 | inactive |
| LRRC4C | no change | no change | -0.88 | -0.53 | inactive |
| CFAP70 | no change | no change | -0.44 | 0.16 | inactive |
| SF3A3 | no change | no change | -4.07 | -0.26 | inactive |
| WFDC2 | no change | no change | -0.05 | 1.56 | inactive |
| FRA10AC1 | no change | no change | 1 | 2.41 | inactive |
| TIMM23B | no change | no change | -1.46 | 1.42 | inactive |
| COMMD7 | no change | no change | -1.08 | 0.34 | inactive |
| CHAF1A | no change | no change | -1.58 | -0.57 | inactive |
| NUF2 | no change | no change | -2.21 | 2.13 | inactive |
| STON1 | no change | no change | -0.65 | 0.14 | inactive |
| TLR6 | no change | no change | -1.21 | 0.01 | inactive |
| MXD3 | no change | no change | 0.69 | -0.62 | inactive |
| RCN1 | no change | no change | -0.14 | -0.22 | inactive |
| ADAMTS12 | no change | no change | -0.16 | -0.6 | inactive |
| KRT33B | no change | no change | 0.45 | -0.58 | inactive |
| TMC2 | no change | no change | -1.07 | -0.3 | inactive |
| AK3 | no change | no change | -0.06 | 3.83 | inactive |
| TIMM9 | no change | no change | 0.75 | -0.3 | inactive |
| HIP1 | no change | no change | -0.66 | -0.49 | inactive |
| TMEM177 | no change | no change | -1.56 | 3.85 | inactive |
| GALR1 | no change | no change | -0.64 | 1.04 | inactive |
| LETM1 | no change | no change | -1.73 | 1.85 | inactive |
| TFCP2 | no change | no change | -0.4 | -0.38 | inactive |
| NFYB | no change | no change | 0.86 | 2.8 | inactive |
| CHRNE | no change | no change | 0.98 | 0.58 | inactive |
| H2BC21 | no change | no change | -0.36 | -0.74 | inactive |
| GNG8 | RV2 (reduced viability) | CA2 (caspase activation) | -3.4 | 5.34 | active |
| ZNF320 | no change | no change | 0.3 | -0.66 | inactive |
| OCIAD2 | no change | no change | 0.14 | -0.84 | inactive |
| PRKD1 | no change | no change | -0.01 | -1.06 | inactive |
| SLU7 | RV2 (reduced viability) | no change | -3.13 | 0.94 | active |
| SLC27A1 | no change | no change | 0.96 | 0.67 | inactive |
| PCSK5 | no change | no change | -0.52 | 1.34 | inactive |
| RIC3 | no change | no change | -0.69 | 1.86 | inactive |
| CYBA | no change | no change | -0.56 | -0.83 | inactive |
| HSF5 | no change | no change | 0.48 | 0.03 | inactive |
| FBXO7 | no change | no change | -0.9 | 2.52 | inactive |
| ZNF345 | no change | no change | 0.07 | -0.4 | inactive |
| SMARCC2 | no change | no change | 1.14 | -0.34 | inactive |
| GARIN1A | no change | no change | -0.14 | -0.65 | inactive |

A stretch of the results above, for reference:
| Target gene | viability hit class | caspase hit class | viability robust z-score | caspase robust z-score | call |
| --- | --- | --- | --- | --- | --- |
| KIF24 | no change | no change | 0.12 | -0.94 | inactive |
| SSTR3 | no change | no change | -0.5 | 1.71 | inactive |
| TSPAN16 | no change | no change | -0.24 | -0.24 | inactive |
